These are yes or no findings as the source states them, for the method shown. Some results given as binding are weak or reduced against the parent protein; the word gives no strength.
Target: human iC3b (purified; Complement Technology #A115) (human) (UniProt P01024)
Experiment: sandwich ELISA on C3, C3b or iC3b; one bar per antigen, y axis without a label

The chains behind the UniProt entries cited, without tags or fusion partners. Where a name states a change or a piece, a line headed by the entry shows the natural chain unless it says otherwise.
UniProt P01024: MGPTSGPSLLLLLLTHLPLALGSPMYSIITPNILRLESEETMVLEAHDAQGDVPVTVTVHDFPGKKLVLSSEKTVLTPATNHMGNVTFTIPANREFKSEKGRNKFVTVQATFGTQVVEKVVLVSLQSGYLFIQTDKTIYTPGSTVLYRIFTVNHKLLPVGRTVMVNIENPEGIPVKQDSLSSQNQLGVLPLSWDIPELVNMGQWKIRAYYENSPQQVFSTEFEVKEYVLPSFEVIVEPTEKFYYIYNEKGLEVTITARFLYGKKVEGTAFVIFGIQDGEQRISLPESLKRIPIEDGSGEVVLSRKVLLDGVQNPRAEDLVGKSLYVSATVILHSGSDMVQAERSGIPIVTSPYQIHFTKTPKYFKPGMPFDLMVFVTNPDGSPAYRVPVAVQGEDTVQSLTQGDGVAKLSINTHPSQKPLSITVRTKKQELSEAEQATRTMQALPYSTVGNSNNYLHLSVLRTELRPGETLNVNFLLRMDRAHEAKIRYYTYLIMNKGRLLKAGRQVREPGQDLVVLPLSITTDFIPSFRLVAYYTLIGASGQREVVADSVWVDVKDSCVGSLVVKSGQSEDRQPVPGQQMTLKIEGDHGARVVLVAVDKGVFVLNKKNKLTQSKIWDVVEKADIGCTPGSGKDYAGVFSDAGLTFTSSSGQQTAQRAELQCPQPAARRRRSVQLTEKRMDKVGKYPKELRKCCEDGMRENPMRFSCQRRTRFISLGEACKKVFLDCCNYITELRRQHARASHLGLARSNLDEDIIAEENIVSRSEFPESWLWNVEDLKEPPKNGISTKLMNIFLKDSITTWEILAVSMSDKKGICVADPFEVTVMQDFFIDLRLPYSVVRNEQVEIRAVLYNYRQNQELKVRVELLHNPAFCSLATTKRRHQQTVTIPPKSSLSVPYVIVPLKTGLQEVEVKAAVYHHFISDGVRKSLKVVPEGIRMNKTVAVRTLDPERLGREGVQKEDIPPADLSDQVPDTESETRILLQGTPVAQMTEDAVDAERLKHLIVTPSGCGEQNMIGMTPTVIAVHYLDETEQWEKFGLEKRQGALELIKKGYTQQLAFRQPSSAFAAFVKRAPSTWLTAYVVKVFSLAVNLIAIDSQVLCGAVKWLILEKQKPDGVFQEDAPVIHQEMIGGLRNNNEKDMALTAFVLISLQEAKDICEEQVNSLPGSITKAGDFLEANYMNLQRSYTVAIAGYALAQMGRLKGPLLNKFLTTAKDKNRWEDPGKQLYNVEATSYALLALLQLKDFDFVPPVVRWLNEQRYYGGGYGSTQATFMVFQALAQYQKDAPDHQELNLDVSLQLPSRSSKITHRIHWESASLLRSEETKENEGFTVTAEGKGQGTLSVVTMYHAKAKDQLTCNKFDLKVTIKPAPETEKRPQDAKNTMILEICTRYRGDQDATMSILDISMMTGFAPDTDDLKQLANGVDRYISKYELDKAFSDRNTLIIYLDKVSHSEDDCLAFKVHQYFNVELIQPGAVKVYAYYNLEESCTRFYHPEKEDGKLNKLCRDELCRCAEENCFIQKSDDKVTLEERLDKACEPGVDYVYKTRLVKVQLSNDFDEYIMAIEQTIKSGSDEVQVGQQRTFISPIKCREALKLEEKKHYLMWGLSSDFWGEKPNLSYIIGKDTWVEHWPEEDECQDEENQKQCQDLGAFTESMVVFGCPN

B1: mouse monoclonal antibody 2H8r (antibody, V domains shown)
VH: QIQLVQSGPELKKPGETVKISCKASGYTFTNYGMNWVKQAPGKGLKWMGWINTYTGEPTYADDFKGRFAFSLETSASTAYLQINNLKNEDMATYFCAKGGYPHYYSMDYWGQGTSVTVSS
VL: DIQMTQTTSSLSASLGDRVTISCRASQDISNYLNWYQQKPDGTVKLLIYYTSRLHSGVPSRFSGSGSGTDYSLTISNLEQEDIATYFCQQGKTLPRTFGGGTKLEIKR
notes: also called m2H8r
binding: binds

Reference: patent publication US20140127225A1 (NEOTOPE BIOSCIENCES, published 2014)
